The values below are quoted from earlier work in patent US20180140566A1, “ACETAMINOPHEN AND TRAMADOL COMPOUND ORAL SOLUTION” (BORA PHARMACEUTICALS CO., LTD., priority 2016, published 2018).

Molecules are shown by their SMILES.

For this data set the following is noted: in words.

Regarding `CC(=O)Nc1ccc(O)cc1` [acetaminophen], the solubility in water result is “dissolves poorly”.
